Values quoted from earlier work as cited in patent US5053398A, “Sulfated homopolysaccharides as anti-AIDS virus agents” (Taito Co., Ltd., priority 1988, dated 1991).
For at least one compound, name, drawing or mass did not settle the structure. Some compounds share one wording; it may come from a single statement.

Tests used:
AIDS virus = conditions: background; cited from earlier work
[1] = test system: reverse transcriptase of AIDS virus; conditions: background; cited from earlier work

Cc1cn([C@H]2C[C@H](N=[N+]=[N-])[C@@H](CO)O2)c(=O)[nH]c1=O [AZT, azidothymidine]
anti-AIDS virus activities (AIDS virus): known to exibit anti-AIDS effects | inhibition of the reverse transcriptase of AIDS virus [1]: has an activity to inhibit the reverse transcriptase of AIDS virus
